# Results of single-concentration screens

Chains of the proteins cited; added tags and fusions are not shown. Residues count along the entry.
UniProt P9WPC5, whole entry: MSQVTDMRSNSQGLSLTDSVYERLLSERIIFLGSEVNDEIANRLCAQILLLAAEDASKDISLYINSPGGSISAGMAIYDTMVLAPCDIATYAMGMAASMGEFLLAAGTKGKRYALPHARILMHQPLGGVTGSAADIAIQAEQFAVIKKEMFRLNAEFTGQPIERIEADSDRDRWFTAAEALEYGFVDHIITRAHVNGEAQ
UniProt P9WPC3, whole entry partner: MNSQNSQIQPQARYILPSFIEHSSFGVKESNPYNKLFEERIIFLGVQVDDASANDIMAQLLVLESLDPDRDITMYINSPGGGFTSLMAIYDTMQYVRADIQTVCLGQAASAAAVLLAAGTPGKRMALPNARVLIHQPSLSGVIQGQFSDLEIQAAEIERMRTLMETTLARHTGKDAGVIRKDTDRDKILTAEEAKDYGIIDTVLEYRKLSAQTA
UniProt P9WNZ1, whole entry: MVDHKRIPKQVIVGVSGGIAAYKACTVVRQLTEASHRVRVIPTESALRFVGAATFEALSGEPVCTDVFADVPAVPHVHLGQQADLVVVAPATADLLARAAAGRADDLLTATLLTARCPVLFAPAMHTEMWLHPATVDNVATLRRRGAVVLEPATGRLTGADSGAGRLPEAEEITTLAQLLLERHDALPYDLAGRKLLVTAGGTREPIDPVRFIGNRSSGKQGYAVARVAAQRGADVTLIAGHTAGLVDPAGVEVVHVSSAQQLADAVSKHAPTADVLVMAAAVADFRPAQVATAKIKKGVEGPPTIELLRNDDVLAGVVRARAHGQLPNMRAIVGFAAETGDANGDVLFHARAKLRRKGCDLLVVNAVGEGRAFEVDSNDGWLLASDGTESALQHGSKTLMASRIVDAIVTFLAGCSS
UniProt Q8IDJ8, 1-583: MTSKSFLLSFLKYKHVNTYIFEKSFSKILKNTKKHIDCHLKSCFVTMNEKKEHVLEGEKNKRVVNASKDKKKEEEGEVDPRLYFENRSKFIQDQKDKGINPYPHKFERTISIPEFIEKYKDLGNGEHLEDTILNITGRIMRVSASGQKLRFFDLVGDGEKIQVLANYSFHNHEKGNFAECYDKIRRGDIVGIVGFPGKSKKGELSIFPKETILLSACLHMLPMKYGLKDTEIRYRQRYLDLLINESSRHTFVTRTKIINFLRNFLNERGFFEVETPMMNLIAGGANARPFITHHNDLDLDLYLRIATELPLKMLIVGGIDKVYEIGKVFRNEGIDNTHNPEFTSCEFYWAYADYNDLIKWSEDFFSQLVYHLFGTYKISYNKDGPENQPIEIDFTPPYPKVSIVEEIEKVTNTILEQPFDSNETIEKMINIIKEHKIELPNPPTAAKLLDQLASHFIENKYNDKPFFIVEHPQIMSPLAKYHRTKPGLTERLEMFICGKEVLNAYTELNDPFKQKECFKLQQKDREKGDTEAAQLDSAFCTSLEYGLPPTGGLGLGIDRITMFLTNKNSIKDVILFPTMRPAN

Each number is a percent effect as filed.
The record does not define 0% and 100%; most values in the screen are far below 50% and negative numbers occur (in some assays of this library far below -100).
The compounds are a random part of those screened.
Two or more numbers in one place are separate tests of the same structure; such repeats can differ widely.
A dash means the value is not listed here; it may have been measured.

ClpP1P2: 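Protease assay of ClpP1P2, read by the AMC dye that it sets free. Target: ClpP1P2, Mycobacterium tuberculosis (UniProt P9WPC5 and UniProt P9WPC3). Tested at 50 µM. Direction is inferred from only a few compounds that gave an IC50; most scored high, so higher reads as stronger inhibition. Most other retested compounds had strongly negative values. Of about 69,000 compounds tested this way, about 10 (0.015%) reached 50% or more in at least one test.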
CoaBC: 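Enzyme assay of CoaBC with a phosphate dye (Biomol Green) read at 650 nm. Target: Coenzyme A biosynthesis protein CoaBC, Mycobacterium tuberculosis (UniProt P9WNZ1). Compounds at 30 µM. Higher reads as stronger inhibition, judged from the few compounds that gave an IC50. Most strong results did not repeat in a second test. Size under these conditions: about 67,000 compounds, about 40 of them at 50% or above in at least one test.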
PfKRS1: 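Lysine-tRNA ligase, Plasmodium falciparum 3D7 (UniProt Q8IDJ8). Enzyme assay of the cytosolic lysyl-tRNA synthetase in 384-well plates, read by luminescence. Concentration: 30 µM. Direction is inferred from only a few compounds that gave an IC50; most scored high, so higher reads as stronger inhibition. Size under these conditions: about 69,000 compounds, about 49 of them at 50% or above in at least one test.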
Leishmania in macrophages: 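Cell assay of Leishmania donovani living inside macrophages; the read-out is not stated. Concentration: 30 µM. Direction is inferred from retests: higher values go with stronger inhibition. Size under these conditions: about 69,000 compounds, about 1,000 of them at 50% or above in at least one test.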

Compound	ClpP1P2	CoaBC	PfKRS1	Leishmania in macrophages
COc1cc(N2CC[C@@H]3[C@@H](CC2)OCCN3CC2CC2)ncn1	11.63	1.485	5.907	-
O=C(O)C(F)(F)F.O=C(O)C(F)(F)F.[H][C@@]12C[C@@H](Oc3cncnc3)CN1CCN(c1ncc(F)cn1)C2	-	-	-	16.13
COc1ccc(C)cc1C(C)NS(=O)(=O)c1ccc2c(c1)CCC(=O)N2 (configuration not stated)	8.964	-0.3659	-4.158	-8.268
Cn1nnc2c1CCN(Cc1ccncc1)C2COCc1ccccc1.O=C(O)C(F)(F)F.O=C(O)C(F)(F)F (configuration not stated)	-	-	-	39.88
CN(C)C(=O)N1CCC2(CC1)CN(Cc1ccccn1)C(=O)CO2	2.265	3.185	4.91	-
COC[C@]1(O)CCN(Cc2c[nH]c(CC3CCCC3)n2)CC1(C)C	-0.3368	-	-1.53	-29.79
OCCNc1nc(NCCc2ccccc2)nc2nccnc12	-312.1	0.2358	0.1209	-9.709
CN(CC(=O)N(C)C1CCN(CC2CCOC2)CC1)c1ccccc1 (configuration not stated)	3.302	7.739	1.248	19.44
Cc1cc(C)nc(N2CCN(Cc3nccn3C)CC2)n1.O=CO	-	-	-	2.282
CCCc1noc(CNc2cc(C[S+](C)[O-])ccc2Cl)n1 (configuration not stated)	-13.73	10.26	2.749	11.21
CNC(=O)[C@@H]1C[C@@H](N)CN1Cc1ccc2cccc(OC)c2n1	-9.3	0.8264	4.876	0.1374
O=C(c1c[nH]cn1)N1CCC(F)(F)C2(CCN(c3ncccn3)C2)C1 (configuration not stated)	4.509	1.474	1.054	-
Cc1cnn(CC2CCCN2Cc2nc(C)c3ccccc3n2)c1 (configuration not stated)	-24.28	10.91	1.757	25.43
CCS(=O)(=O)N1CCC2(CC1)CC(COC)N(c1ncccn1)C2.O=C(O)C(F)(F)F (configuration not stated)	-	-	-	8.402
O=C1COC2(CCN(S(=O)(=O)C3CC3)CC2)CN1c1cccnc1	12.94	3.258	-0.8112	-
Cc1ncsc1C(=O)NCCNc1ncccc1C#N	-16.64	-14.78	2.04	-0.593
COCc1ncn2c1CN(C(=O)c1ccc3ccccc3n1)CC2.O=C(O)C(F)(F)F	-	-	-	7.399
CCN(CCn1cccn1)Cc1nc(-c2ccccc2F)oc1C	-5.18	-8.017	3.834	22.9
CCC(c1ccc(F)cc1)S(=O)(=O)CCO (configuration not stated)	-2.813	-6.163	-6.155	-20.12
Fc1cnc(N2CCc3nnc(COc4ccccn4)n3CC2)nc1.O=C(O)C(F)(F)F	-	-	-	4.368
Cn1cnc2c1CCN(Cc1c(Cl)ccc3cccnc13)C2	-7.148	-5.357	-0.6972	13.3
O=C(c1coc(-c2ccccc2)n1)N1CCS(=O)(=O)CC1	1.506	-3.067	8.13	21.62
COc1cccc(S(=O)(=O)CCNC(C)Cn2cccn2)c1 (configuration not stated)	-0.6764	-0.7353	0.6381	23.83
O=C(Cn1cc(Cl)cn1)N1CCCC(c2cc3ccccc3cn2)C1 (configuration not stated)	-23.48	-0.3708	0.4102	14.69
CCNC(=O)[C@@H]1C[C@H](N)CN1Cc1ccc(-c2cc[nH]n2)o1	4.354	-4.628	2.495	11.56
c1cc(-c2ccn(CCN3CCCC3)n2)cc(-c2nccs2)c1	-3.622	-17.6	3.081	9.515
O=C(O)C(c1ccc2c(c1)OCO2)N1CCC(O)(c2cccnc2)CC1 (configuration not stated)	-5.022	7.991	0.6729	-0.1135
Cc1noc(C)c1CN1CC2(CCN(C(=O)c3ccc[nH]3)C2)CC1=O (configuration not stated)	-6.793	8.055	6.118	22.48
CNC(=O)CC1CCN(C(=O)NCc2cn3c(C)cccc3n2)CC1	-8.446	2.036	9.076	14.1 and 4.037
CC(C)Cc1cc(NC(=O)N2CCC(Oc3cccnc3)C2)n(C)n1 (configuration not stated)	0.9511	4.912	7.883	14.35
COc1cc(C)ccc1OCc1nc(C(=O)N2CCCC2)co1	-1.895	0	4.49	-24.6
Cc1cc(C(=O)N2CCc3c(nc(-c4ccncc4)[nH]c3=O)C2)no1	-10.94	-4.078	0.7489	-14.32
O=C1N(c2cccc(F)c2)Cc2nc(=O)n(Cc3ccc(Cl)cc3)n21	-9.078	1.816	2.367	35.34
COC(=O)Nc1ccc(CNc2cncc(-n3cccn3)n2)cc1	-20.53	1.195	2.932	52.92
CC(C)c1nn(C)c(N(C)C)c1CNCc1ccc2c(c1)OCCO2	19.03	6.389	-0.926	9.372
CCc1nnc2n1CCN(C(=O)c1cnc(-c3cccs3)s1)C2	-3.739	1.33	2.348	20.62
Cc1ccc(C(C)NC(=O)CNCCn2cccn2)cc1C (configuration not stated)	-15.21	2.968	-1.031	-8.928
CCn1c(C)nnc1CN(C)C1CCN(CCn2cccn2)C1 (configuration not stated)	21.06	-6.667	6.761	-3.74
CN1C(=O)CO[C@H]2CN(C(=O)c3ccc4c(c3)CCCC4)C[C@@H]21	26.66	3.417	2.163	-
CN1CCN(S(=O)(=O)c2ccc(Cl)c(Cl)c2)c2cnccc21	4.708	2.132	10.26	-8.206
Cc1n[nH]c(C2CN(CC(=O)NCCc3ccsc3)CCO2)n1 (configuration not stated)	9.183	4.051	-0.01159	22.05
[H][C@@]12CCN(C(=O)c3ccco3)[C@]1([H])CN(S(C)(=O)=O)C2	-	-	-	25.86
Cc1oc(-c2ccsc2)nc1CC(=O)NCCS(C)(=O)=O	-1.904	1.818	6.238	23.47
O=C(O)C(F)(F)F.O=C(O)C(F)(F)F.[H][C@@]12CN(Cc3cccs3)C[C@]1([H])OCCN2CC1CCCO1 (some centres not stated)	-	-	-	17.33
[H][C@]12CC[C@]([H])(CN(Cc3cscn3)C1)N(C(=O)c1cccn1C)C2	-	-	-	37.85
COc1ccc(CCN2CCCC(CN(C)Cc3ccc(C)o3)C2)cc1 (configuration not stated)	-6.825	-25.11	1.278	48.36
Cc1cc(C)n(C2=NC(NCCC(C)C)c3c(sc4c3CCCC4)N2)n1 (configuration not stated)	-18.55	3.924	3.942	29.71
[H][C@@]12CCN(C(=O)COC)C[C@]1(c1nc(C)no1)CCO2	-	-	-	20.73
COc1ccc(CN(Cc2cncn2C)CC2CCCO2)c(OC)c1 (configuration not stated)	6.889	4.722	6.43	-
CS(=O)(=O)Nc1ccc2c(c1)NC(=O)CC2c1cnn2cccnc12 (configuration not stated)	-3.985	1.141	0.5796	14.91
O=C(O)c1cc(S(=O)(=O)N2CCOc3ccccc32)ccc1F	16.91	-1.295	5.251	-11.23
Cc1cccc(NC(=O)CCNCc2c(C)nn(C)c2N(C)C)n1	3.689	-6.638	0.4123	14.86
Cc1ccc(CN2CCC(O)(Cn3nc(-c4cccs4)oc3=O)CC2)o1	-14.89	2.822	3.133	-
CC(C)C(=O)N1C[C@H]2CCCN[C@H]2C1	2.321	0.7634	3.373	-
N#Cc1cc(NC(=O)c2ccccc2)ccc1N1CCC(O)CC1	-11.06	7.463	5.25	27.7

For reference, 5 entries once more:

| Compound | ClpP1P2 | CoaBC | PfKRS1 | Leishmania in macrophages |
|---|---|---|---|---|
| `CCCc1noc(CNc2cc(C[S+](C)[O-])ccc2Cl)n1` (configuration not stated) | -13.73 | 10.26 | 2.749 | 11.21 |
| `O=C(O)c1cc(S(=O)(=O)N2CCOc3ccccc32)ccc1F` | 16.91 | -1.295 | 5.251 | -11.23 |
| `CNC(=O)[C@@H]1C[C@@H](N)CN1Cc1ccc2cccc(OC)c2n1` | -9.3 | 0.8264 | 4.876 | 0.1374 |
| `CN1CCN(S(=O)(=O)c2ccc(Cl)c(Cl)c2)c2cnccc21` | 4.708 | 2.132 | 10.26 | -8.206 |
| `O=C1COC2(CCN(S(=O)(=O)C3CC3)CC2)CN1c1cccnc1` | 12.94 | 3.258 | -0.8112 | - |

Data taken from ChEMBL document CHEMBL3988442, “University of Dundee, Small-Polar-MMV Screening Library” (2021).